No constants are given. Whether binding was seen depends on the method and setting. One block for each binder: values may come before it.
Columns and labels:
Test in all cases: SPR Biacore 4000, captured mAb, 25C
[1] = target: Carrot (Dau c 1.2) (Carrot)
[2] = target: Celery (Api g 2) (Celery)
[3] = target: White Oak (Que a 1) (White Oak)

B1: H4H17015P (antibody, human IgG4, V domains shown)
VH: QVQLQESGPGLVKPSQTLSLTCTVSGGSISSADHYWSWIRQQPGKGLEWIGYISYRGTTYYNPTLESRVSISVDTFKNQFSLMLHSVTVADTAVYYCAKVLQGLVRFRDYGFDVWGQGTTVTVSS
VL: DIQLTQSPPFLSASVGDRVTITCWASQDISSYLAWYQQNPGKSPKLLIYDAFTLHTGVPSRFSGSGSGTEFTLTISSLQPEDFATFYCQHLYSFPFTFGPGTKVDIK
- binding [1]: no binding (tested: 100 nM)
- binding [2]: no binding (tested: 100 nM)
- binding [3]: no binding (tested: 100 nM)

B3: H4H17027P (antibody, human IgG4, V domains shown)
VH: EVQLVESGGGLVQPGGSLRLSCAASGFTFRNYAMHWVRQAPGEGLEWVAAIYRNSDSIDYADSVKGRFTISRDNAKNSLYLQMNSLKTEDTALYYCAKDEGFLEYFDSWGQGTLVTVSS
VL: EIVLTQSPGTLSLSPGERASLSCRASQSVSSSFLAWYQQKPGQAPRLLIYGVSSRFIGIPDRFSGGGSGTDFTLTITRLEPEDFAVYYCQQYGRSPWTFGQGTKVEIK
- binding [1]: no binding (tested: 100 nM)
- binding [2]: no binding (tested: 100 nM)
- binding [3]: no binding (tested: 100 nM)

B4: H4H16987P (antibody, human IgG4 S228P, kappa, V domains shown)
VH: EVQLVESGGGLVQPGGSLRLSCAASGFTVSSNSMSWVRQAPGEGLEWVSVIFSGGITYYSDSVKGRFTISRHNSKNTLYLQMNSLRTEDTAVYYCARHSNWNFDAFDIWGQGTMVTVSS
VL: DIQMTQSPSSLSASVGDRVTITCRASQSFDTYLNWYQQKPGKAPNLLIYATSSLQSGVPSRFSGSGSGTDFTLTISSLQPEDFGTYYCQQSYSIPYTFGQGTKLEIKR
- binding [1]: no binding (tested: 100 nM)
- binding [2]: no binding (tested: 100 nM)
- binding [3]: no binding (tested: 100 nM)

B6: H4H17001P (antibody, human IgG4, V domains shown)
VH: QVQLVESGGGLVKPGGSLRLSCAASGFTFSDYYMNWIRQAPGKGLEWISLISSSGSAIYYSDSVKGRFTISRDNARKSLYLQVNSLRAEDTAVYYCARDRGEWALGAYYYGLDVWGQGTTVTVSS
VL: DIVMTQSPLSLPVTPGEPASISCRSSQSLLHSDGYNYLDWYLQKSGQSPQLLIYLGSNRASGVPDRFSGSGSGTDFTLKISRMEAEDVGVYYCMQALQTPYTFGQGTKLEIK
- binding [1]: no binding (tested: 100 nM)
- binding [2]: no binding (tested: 100 nM)
- binding [3]: no binding (tested: 100 nM)

B7: H4H17028P (antibody, human IgG4, V domains shown)
VH: QVQLVESGGGVVQPGRSLRLSCAASGFTFSRYAIHWVRQAPGKGLEWVAVISYDGDDKYYGDSVKGRFTISRDNSKTMVYLHMNSLRTEDTAVYYCAKDGYSLYGKDYFDYWGQGTLVTVSS
VL: EIVLTQSPGTLPLSPGERATLSCRASQSITNSYLAWYQQKPDQAPRLLIYGASSRATGIPDRFSGSESGTDFTLTISRLEPEDFAVYYCQQYVRSPWTFGQGTKVEIK
- binding [1]: no binding (tested: 100 nM)
- binding [2]: no binding (tested: 100 nM)
- binding [3]: no binding (tested: 100 nM)

More lines, now with the values ahead:

- binding [1]: no binding (tested: 100 nM)
- binding [2]: no binding (tested: 100 nM)
- binding [3]: no binding (tested: 100 nM)
B2: H4H16960P (antibody, human IgG4, V domains shown)
VH: QLQLQESGPGLVRPSETLSLTCTVSGGSISSSNYWWGWIRQPPGKGLEWIGSIYYSGITYYNPSLKSRVTISADTSKDQFSLKLRSVTAADTAVYYCAKLEWLRLDFWGQGTTVTVSS
VL: DIQMTQSPSSVSASVGDRVTITCRASQGISSWLVWYQQKPGKVPKLLIYAASSLQSGVPLRFSGSGSGTDFTLTISSLQPEDFATYYCQQAKSFPLTFGQGTRLEIK

- binding [1]: no binding (tested: 100 nM)
- binding [2]: no binding (tested: 100 nM)
- binding [3]: no binding (tested: 100 nM)
B5: H4H16946P (antibody, human IgG4, V domains shown)
VH: EVQLVESGGGLVQPGGSLRLSCVASGFTFSNYDMNWVRQAPGEGLEWISYISYSDHNIYYIDSVKGRFTISRDNAKNSLYLQMNSLRAEDTAIYYCAREALASSSFDYWGQGTLVTVSS
VL: EIVMTQSPATLSVSPGERVTLSCRASQSVSGNLAWYQQKPGQAPRLLIYSASTGATGVPARFSGSGSGTEFTLTISSLQSEDFALYYCQQYNKWPRTIGQGTKVEIK

- binding [1]: no binding (tested: 100 nM)
- binding [2]: no binding (tested: 100 nM)
- binding [3]: no binding (tested: 100 nM)
B8: H4H17031P (antibody, human IgG4, V domains shown)
VH: QVQLQQWGAGLLKPSETLSLTCVVYGESFGNYHWNWIRQSPGKRLEWIGEINQNGHTNYNPSLKSRVTISVDTSKIQFSLRLNSVTAADTAVYFCARGHNYVNSYFGLDVWGQGTTVTVSS
VL: EIVMTQSPATLSVSPGERATLSCRTSQSVSISLAWYQRKPGQAPRLLIFGSSTRATGVPARFSGSGSGTEFTLTISSLQSEDFAVYYCQQYNNWPYTFGQGTKLEIK

- binding [1]: no binding (tested: 100 nM)
- binding [2]: no binding (tested: 100 nM)
- binding [3]: no binding (tested: 100 nM)
B9: H4H16950P (antibody, human IgG4, V domains shown)
VH: QVQLVQSGAEVKKPGASVKVSCKTSGYTFTNYGITWVRQAPGQGLEWMGWISAYNGNTNYAQNVQGRVTMTTDTSTSTAYMEVRSLRSDDTAVYYCARRSSMLHFQHWGQGTLVTVSS
VL: DIVMTQSPDSLAVSLGERATINCKSSQHVLYDSSNENYLAWFQQKPGQPPKLLIYWASTRESGVPDRFSGSGSGTDFTLTISSLQAEDVAVYYCQQYSSAPYTFGQGTKLEIK

- binding [1]: no binding (tested: 100 nM)
- binding [2]: no binding (tested: 100 nM)
- binding [3]: no binding (tested: 100 nM)
B10: H4H17033P (antibody, human IgG4, V domains shown)
VH: QVQLVQSGAEVKKPGASVKVSCKASGYTFAAHYMHWVRQAPGQGLEWMGWINTYTGGTNYGQKFQGRVTMTRDTSITTAYMELSRLRSDDTAVYYCARDRRNWNFVFEYWGQGTLVTVSS
VL: DIQMTQSPSSLSASVGDRVTISCRASQNIKNYLNWYQQKPGKAPKLLIYEASNLQSGAPSRFSGSGSGTDFTLTISSLEPEDFATYYCQQSFSIPWTFGQGTKVEIK

- binding [1]: no binding (tested: 100 nM)
- binding [2]: no binding (tested: 100 nM)
- binding [3]: no binding (tested: 100 nM)
B11: H4H16991P (antibody, human IgG4, V domains shown)
VH: QVQLVQSGAEVRKPGASVKVSCKASGYTFTGYYLHWVRQAPGQGLEWMGLINPNTGGTNFAQKFQGRVTMTRDSSISAAYMELSRLRSDDTAVYYCARQHWNRYFDNWGQGTLVTVSS
VL: DIQMTQSPSTLSASVGDRVTITCRASQSVGNWLAWYQQKPGKAPKLLIQEASSIESGVPSRFSGSGSGTEFTLIVSSLQPDDFATYYCQQYNSYSWTFGHGTKVEIK

Reference: patent US20180346555A1
